Data as given in PubChem BioAssay AID504786 (Drosophila RNAi Screening Center, 2011).

Assay: 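Positive regulators of HIF-driven reporter output in Drosophila cells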 (primary screen)
Cell system: Drosophila S2 cells with a stable HIF luciferase reporter
Reagent: long dsRNA against Drosophila genes, about 0.2 µg dsRNA per well of a 384-well plate
Time to read-out: three days of knock-down, then 20 h of DFO before reading
Treatment: desferrioxamine (DFO) at 100 µM, an iron chelator that mimics hypoxia, for 20 h
Read-out: 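HIF reporter luminescence in cells given 100 µM DFO for 20 h, using the mouse ldh-a hypoxia-response element, scored as per-plate z-scores; higher means greater loss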
Direction: z-score: higher = stronger loss of HIF reporter signal
The deposit covers about 21,000 reagents; shown is an unselected part of those with a known target gene and a result. 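Primary screen; positive scores mean lost reporter signal, so the sign may be inverted from the usual convention.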 A plus sign joins genes that one reagent is predicted to hit. No sequences are given here.

target,dsRNA,"z-score, replicate 1","z-score, replicate 2","z-score, replicate 3","z-score, replicate 4"
Usp20-33 (GeneID 36580),DRSC07196,-0.3,0,,
Ars2 (GeneID 35539),DRSC04893,1.6,1.6,,
CG8543 (GeneID 38837),DRSC10990,-0.1,-0.1,,
CG8301 (GeneID 41160),DRSC16405,-0.2,-0.5,,
Dtwd2 + Obp84a,DRSC12603,-0.4,0.2,,
CR11386 + CR33222,DRSC17781,-0.2,-0.3,,
Chchd3 (GeneID 43672),DRSC16981,3.6,1.3,,
CG7741 (GeneID 36208),DRSC07035,-0.2,-0.1,,
CG5810 (GeneID 42513),DRSC15880,-0.2,-0.4,,
CG13443 (GeneID 37351),DRSC06403,-0.3,-0.7,,
Tie (GeneID 38559),DRSC08104,1.1,0.3,,
Tie (GeneID 38559),DRSC08702,2.8,1.3,,
dany (GeneID 246593),DRSC04141,-0.2,-0.2,,
CG3492 (GeneID 37902),DRSC04373,-0.2,0,,
rst (GeneID 31290),DRSC17243,-0.4,-0.2,,
rst (GeneID 31290),DRSC18828,-0.2,-0.8,,
Tsp33B (GeneID 34590),DRSC02418,-0.1,-0.2,,
CG2076 (GeneID 32041),DRSC19832,-0.2,0.3,,
t-cup (GeneID 318986),DRSC01254,0.3,0.2,,
Cul1 (GeneID 35742),DRSC07645,-0.6,-1,,
MAN1 (GeneID 37838),DRSC04342,-0.3,-0.4,,
nclb (GeneID 36150),DRSC07009,-0.2,-0.2,,
CG11170 (GeneID 37533),DRSC04090,-0.3,-0.4,,
CG15890 (GeneID 32401),DRSC19737,-0.1,0,,
beag (GeneID 41091),DRSC15296,0,0.7,,
CG5758 (GeneID 35083),DRSC02889,-0.3,2.2,0.4,2.5
CG5758 (GeneID 35083),DRSC02890,-0.3,0.2,,
botv (GeneID 37198),DRSC05949,-0.3,0,,
mtTFB2 (GeneID 41228),DRSC15519,-0.3,0.2,,
CR42546 (GeneID 8674079),DRSC03711,-0.2,-0.2,,
CG8001 (GeneID 38224),DRSC08611,-0.3,0.7,,
kek6 (GeneID 43729),DRSC15299,-0.4,-0.4,,

4 entries from above in another layout:
{"target":"botv (GeneID 37198)","dsRNA":"DRSC05949","z-score, replicate 1":-0.3,"z-score, replicate 2":0}
{"target":"mtTFB2 (GeneID 41228)","dsRNA":"DRSC15519","z-score, replicate 1":-0.3,"z-score, replicate 2":0.2}
{"target":"CR42546 (GeneID 8674079)","dsRNA":"DRSC03711","z-score, replicate 1":-0.2,"z-score, replicate 2":-0.2}
{"target":"CG8001 (GeneID 38224)","dsRNA":"DRSC08611","z-score, replicate 1":-0.3,"z-score, replicate 2":0.7}

Continued.
target,dsRNA,"z-score, replicate 1","z-score, replicate 2","z-score, replicate 3","z-score, replicate 4"
Dll (GeneID 37973),DRSC04610,0.2,0.3,,
chm (GeneID 43928),DRSC03341,-0.3,-0.1,,
Hgsnat (GeneID 31423),DRSC18405,-0.4,0.1,,
CG17780 (GeneID 42914),DRSC15265,-0.6,-0.7,,
CG30083 (GeneID 246444),DRSC05572,-0.1,-0.3,,
rb (GeneID 31381),DRSC18826,-0.3,-0.1,,
Ubc10 (GeneID 37035),DRSC07568,-0.2,-0.3,,
CG15073 (GeneID 37155),DRSC06506,-0.2,0.3,,
svp (GeneID 41491),DRSC12899,-0.2,-0.3,,
svp (GeneID 41491),DRSC15311,4.4,6,,
svp (GeneID 41491),DRSC17075,-0.4,-0.6,-0.5,-0.2
CG8260 (GeneID 32521),DRSC20098,-0.2,-0.6,,
Vps16A (GeneID 41107),DRSC16422,0.1,0.7,,
Hap40 (GeneID 32507),DRSC20085,-0.2,-0.2,,
Lcp65Ae (GeneID 45018),DRSC11212,0.1,0.2,,
CG18258 (GeneID 32708),DRSC19798,-0.4,0.2,,
dar1 (GeneID 38436),DRSC08049,-0.3,-0.1,,
dar1 (GeneID 38436),DRSC08233,-0.3,-0.7,,
Targ3 (GeneID 5740205),DRSC11471,0.2,-0.3,,
TfIIA-S-2 (GeneID 31048),DRSC17791,-0.3,-0.5,,
Clamp (GeneID 35445),DRSC03718,-0.3,-0.3,,
Atg101 (GeneID 32871),DRSC20020,-0.7,-0.9,,
gw (GeneID 43808),DRSC17135,3.9,1.8,,
gw (GeneID 43808),DRSC17160,4.8,2.8,,
CG7460 (GeneID 39973),DRSC10850,-0.2,-0.6,,
SerRS (GeneID 33518),DRSC00496,0,-0.7,,
PH4alphaSG2 (GeneID 43623),DRSC15037,-0.5,-0.1,,
EndoA (GeneID 42265),DRSC14775,-0.3,0,,
CG14837 (GeneID 38849),DRSC10207,-0.4,-0.9,,
CG42561 (GeneID 8674029),DRSC05676,-0.1,-0.2,,
tilB (GeneID 33130),DRSC20634,-0.5,-0.1,,
CG32488 (GeneID 326220),DRSC08549,-0.8,-0.5,,
betaTub56D (GeneID 37238),DRSC07583,0.8,2.5,,
Zip42C.1 (GeneID 35579),DRSC05003,-0.1,-0.3,,
CG14304 (GeneID 42232),DRSC14783,-1,-0.6,,
bin (GeneID 38766),DRSC10332,-0.2,-0.6,,
dtr (GeneID 318856),DRSC01847,0.2,-0.3,,
gcm2 (GeneID 34280),DRSC03538,-0.3,-0.4,,
CG3568 (GeneID 31383),DRSC18312,-0.2,-0.3,,
Rtnl2 (GeneID 40903),DRSC12609,-0.4,-1.3,,
tum (GeneID 36538),DRSC07575,-0.2,-0.2,,
Aldh-III (GeneID 45398),DRSC06047,0,0.2,,
CG4962 (GeneID 39793),DRSC10464,0.1,-0.8,,
CG15406 (GeneID 33542),DRSC00420,-0.2,0.2,,
stv (GeneID 39518),DRSC09796,-0.3,0,,
stv (GeneID 39518),DRSC10111,-0.1,-0.5,,
Apl (GeneID 59216),DRSC10350,-0.1,-0.6,,
CG14621 (GeneID 33128),DRSC20635,-0.5,-0.1,,
CG3014 (GeneID 40922),DRSC15458,-0.3,-0.3,,
Hmg-2 (GeneID 37407),DRSC04554,-0.2,0.1,,
Gel (GeneID 46008),DRSC12350,-0.3,-0.1,,
